Data: PubChem BioAssay AID1487 (National Center for Advancing Translational Sciences (NCATS), 2009)
This is one part of the list. Shown are side measurements of this screen, not its main read-out; they come without a call. Most of these compounds were active or inconclusive in the main read-out, so they are no random draw. Potencies come from curve fits of mixed quality, noted in brackets.

Experiment: qHTS Assay for Modulators of Lamin A Splicing
Settings: HeLa LMNA splicing GFP/RFP minigene ratio, 48 h
Procedure, shortened: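 S3 HeLa stable clones carrying a lamin A-EGFP splicing minigene plus DsRed2 were seeded at 600 cells/well in Opti-MEM with 2% FBS, pin-dosed and incubated 48 h at 37°C. Acumen cytometry (488 nm) gave the GFP/RFP total-intensity ratio.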

[1] = measured here: GFP splicing reporter channel
[2] = measured here: RFP viability control channel

| Compound | AC50 [1] | AC50 [2] |
| --- | --- | --- |
| COc1ccc(-c2cc(C(F)(F)F)nc(NCc3cccnc3)n2)cc1 | 22.4 µM [rising, single point] |  |
| CC(=O)C1=C(c2ccc(Br)cc2)N(C(C)=O)n2c(nnc2C2CCCCC2)S1 | 35.5 µM [falling, single point] |  |
| Cc1nc2ccc(NS(=O)(=O)c3ccc(F)cc3)cc2s1 | 11.2 µM [falling, partial curve] | 7.94 µM [falling, partial curve] |
| COCCNC(=O)c1cccc(Nc2nc(-c3ccccc3)c3cc(Cl)ccc3n2)c1 | 6.31 µM [falling, single point] |  |
| O=C(O)c1ccc2c(c1)C(=O)N(c1cccc(C(=O)/C=C/c3ccccc3)c1)C2=O | 0.126 µM [falling, full curve, poor fit] |  |
| CCOC(=O)c1c(C)oc2nc(C)nc(NCc3cccc(Cl)c3)c12 |  | 0.126 µM [falling, full curve, poor fit] |
| COc1cc(NS(=O)(=O)c2ccc(C)cc2)c2ncccc2c1 |  | 15.8 µM [rising, single point] |
| Cc1ccccc1Nc1nc2nonc2nc1N1CCOCC1 |  | 0.447 µM [rising, full curve, poor fit] |
| CC(=O)Nc1ccc(NC(=O)COc2ccccc2C(=O)Nc2cccc(Cl)c2Cl)cc1 | 31.6 µM [falling, single point] |  |
| Cc1cccc(NC(=O)c2cccc(Cn3cc(Br)c([N+](=O)[O-])n3)c2)c1C | 14.1 µM [rising, partial curve] | 14.1 µM [rising, partial curve] |
| CN1C(=O)C2C(c3ccc(N(C)C)cc3)=NN(Cc3ccccc3)C2C1=O (stereo not given) | 0.01 µM [rising, full curve, poor fit] |  |
| COc1cc(C(=O)N/N=c2/sc3ccccc3n2C)cc(OC)c1OC |  | 35.5 µM [rising, single point] |
| CN1CCN(C(=S)SCC(=O)Nc2nc(-c3ccccc3)c(-c3ccccc3)o2)CC1 |  | 28.2 µM [rising, single point] |
| COC(=O)c1ccc(NS(=O)(=O)c2cc(C)ccc2OC)cc1 |  | 20 µM [rising, single point] |
| CCOc1cc(-c2c(C#N)c(N)nc3c2CCc2ccccc2-3)ccc1O |  | 31.6 µM [rising, single point] |
| O=c1[nH]c(CN2CCc3ccccc32)nc2scc(-c3cccs3)c12 | 3.98 µM [falling, single point] | 1.78 µM [falling, partial curve] |
| O=c1[nH]c(CSc2ccccn2)nc2c1cnn2-c1ccccc1 | 7.94 µM [rising, partial curve, poor fit] | 14.1 µM [rising, single point] |
| CC(Cc1cccs1)NC(=S)Nc1ccc(Cl)cc1 (stereo not given) | 15.8 µM [rising, partial curve] | 25.1 µM [rising, partial curve] |
| COc1ccc(C(=O)Nc2ccc(S(=O)(=O)Nc3cc(C)nc(C)n3)cc2)c(OC)c1 | 14.1 µM [rising, partial curve] | 25.1 µM [rising, single point] |

Entries above that contain sulfur:

| Compound | AC50 [1] | AC50 [2] |
| --- | --- | --- |
| CC(=O)C1=C(c2ccc(Br)cc2)N(C(C)=O)n2c(nnc2C2CCCCC2)S1 | 35.5 µM [falling, single point] |  |
| Cc1nc2ccc(NS(=O)(=O)c3ccc(F)cc3)cc2s1 | 11.2 µM [falling, partial curve] | 7.94 µM [falling, partial curve] |
| COc1cc(NS(=O)(=O)c2ccc(C)cc2)c2ncccc2c1 |  | 15.8 µM [rising, single point] |
| COc1cc(C(=O)N/N=c2/sc3ccccc3n2C)cc(OC)c1OC |  | 35.5 µM [rising, single point] |
| CN1CCN(C(=S)SCC(=O)Nc2nc(-c3ccccc3)c(-c3ccccc3)o2)CC1 |  | 28.2 µM [rising, single point] |
| COC(=O)c1ccc(NS(=O)(=O)c2cc(C)ccc2OC)cc1 |  | 20 µM [rising, single point] |
| O=c1[nH]c(CN2CCc3ccccc32)nc2scc(-c3cccs3)c12 | 3.98 µM [falling, single point] | 1.78 µM [falling, partial curve] |
| O=c1[nH]c(CSc2ccccn2)nc2c1cnn2-c1ccccc1 | 7.94 µM [rising, partial curve, poor fit] | 14.1 µM [rising, single point] |
| CC(Cc1cccs1)NC(=S)Nc1ccc(Cl)cc1 (stereo not given) | 15.8 µM [rising, partial curve] | 25.1 µM [rising, partial curve] |
| COc1ccc(C(=O)Nc2ccc(S(=O)(=O)Nc3cc(C)nc(C)n3)cc2)c(OC)c1 | 14.1 µM [rising, partial curve] | 25.1 µM [rising, single point] |

Sorted by length of the SMILES (descending): some entries from above

| Compound | AC50 [1] | AC50 [2] |
| --- | --- | --- |
| CN1CCN(C(=S)SCC(=O)Nc2nc(-c3ccccc3)c(-c3ccccc3)o2)CC1 |  | 28.2 µM [rising, single point] |
| COCCNC(=O)c1cccc(Nc2nc(-c3ccccc3)c3cc(Cl)ccc3n2)c1 | 6.31 µM [falling, single point] |  |
| CN1C(=O)C2C(c3ccc(N(C)C)cc3)=NN(Cc3ccccc3)C2C1=O (stereo not given) | 0.01 µM [rising, full curve, poor fit] |  |

(continued)

| Compound | AC50 [1] | AC50 [2] |
| --- | --- | --- |
| CN(C)c1ccc(/C=C/C(=O)c2ccc(C(C)(C)C)cc2)cc1[N+](=O)[O-] | 11.2 µM [rising, single point] | 14.1 µM [rising, single point] |
| CC(=O)Nc1ccc(S(=O)(=O)Oc2ccc(C(=S)N3CCCCC3)cc2)cc1 | 1 µM [rising, full curve] | 6.31 µM [rising, partial curve] |
| Cn1cccc1-c1nc2ccccc2n1Cc1ccccc1 | 25.1 µM [rising, single point] | 17.8 µM [rising, single point] |
| COCCNc1nc2c(c(=O)n(C)c(=O)n2C)n1Cc1cccc(C(F)(F)F)c1 |  | 12.6 µM [rising, single point] |
| COc1ccc(OC)c(NC(=O)CN(C)S(=O)(=O)c2ccc3nc(C)sc3c2)c1 | 11.2 µM [rising, partial curve] | 10 µM [rising, partial curve] |
| COc1cc(CC(=O)Nc2ccc(Cl)c(C(F)(F)F)c2)cc(OC)c1OC | 8.91 µM [rising, partial curve] |  |
| O=C(O)c1cc(Sc2ccc(Br)cc2)nc2ccccc12 | 0.355 µM [falling, full curve] |  |
| CCC1=Nc2cc(C(=O)NCc3ccco3)ccc2Sc2ccc(Cl)cc21 |  | 2.24 µM [rising, full curve] |
| O=C(CCCN1C(=O)/C(=C/c2cccs2)SC1=S)Nc1ccc(O)c(C(=O)O)c1 | 0.02 µM [rising, full curve, poor fit] |  |
| Nc1c(C(=O)c2ccccc2)sc(Nc2ccccc2)c1S(=O)(=O)c1ccccc1 | 6.31 µM [rising, partial curve, poor fit] |  |
| CC1CN=C(N(C(=O)Nc2ccccc2)c2ccc(S(=O)(=O)N3CCOCC3)cc2)S1 (stereo not given) | 5.01 µM [rising, partial curve, poor fit] | 20 µM [rising, single point] |
| COc1ccc(CNC(=O)CN(CCC(C)C)S(=O)(=O)c2ccc3c(c2)OCCO3)cc1 |  | 35.5 µM [rising, single point] |
| O=C(c1cc(COc2c(F)cccc2F)on1)N1CCc2ccccc2C1 |  | 35.5 µM [falling, partial curve, poor fit] |
| Cc1ccc(NC(=S)N(CCCN2CCOCC2)Cc2cccnc2)cc1C | 12.6 µM [falling, partial curve] |  |
| COc1ccc(CCN(C)C(=O)CSc2nccn2C)cc1OC |  | 3.55 µM [rising, single point] |
| CCOC(=O)/C(=C/C=C1\Sc2cc(OCC)c(OCC)cc2N1CC)C(C)=O | 22.4 µM [falling, partial curve] | 10 µM [falling, partial curve] |
| CCOC(=O)N1CCC(=NNc2ccnc3cc(Cl)ccc23)CC1 | 35.5 µM [falling, partial curve] |  |
| O=C(Cc1ccccc1)Nc1nnc(SCC(=O)NC2CCCC2)s1 | 0.00398 µM [rising, full curve, poor fit] |  |
| Cc1cccc(C(=O)N2CCC(c3nc4ccccc4s3)CC2)c1 | 0.562 µM [falling, partial curve] | 0.562 µM [falling, full curve, poor fit] |

| Compound | AC50 [1] | AC50 [2] |
| --- | --- | --- |
| COc1cc(NC(=O)N2CCC3(CC2)Nc2ccccc2-n2cccc23)cc(OC)c1OC | 20 µM [rising, partial curve, poor fit] | 20 µM [rising, partial curve, poor fit] |
| C=C(C)CNC(=S)N/N=C/c1ccc([N+](=O)[O-])cc1 |  | 0.0224 µM [falling, full curve, poor fit] |
| Cc1nsc(Nc2ccc([N+](=O)[O-])cc2)c1C#N | 3.98 µM [falling, partial curve] | 1.12 µM [falling, full curve] |
| Cc1noc(C)c1COc1cccc(C(=O)NCCc2c[nH]c3ccccc23)c1 |  | 11.2 µM [rising, partial curve] |
| CCOC(=O)C(=O)Nc1nnc2n1CCS2 |  | 0.0224 µM [falling, full curve, poor fit] |
| CCN(CC)C(=O)c1ccc(CS(=O)(=O)c2ccc(OC)cc2)o1 |  | 35.5 µM [rising, single point] |
| CN(C)C(=O)c1ccc(-c2ccc3ncnc(NCc4cccs4)c3c2)cc1 | 20 µM [falling, partial curve] |  |
| Cc1nc(N2CCCC2)ncc1C(=O)N1CCN(c2ccc(Cl)cc2)CC1 | 15.8 µM [falling, partial curve, poor fit] |  |
| CCOC(=O)C1=C(N2CCCCC2)c2cc3c(n2C1=O)CCCC3 | 8.91 µM [rising, partial curve] | 11.2 µM [rising, single point] |
| Cc1nc2c(C(=O)NCc3ccccc3Cl)cnn2c(C)c1Cc1ccccc1 |  | 0.0141 µM [rising, full curve, poor fit] |
| Cc1c(C(=O)OCC(=O)NCCN2C(=O)CSC2=O)oc2c1ccc1ccccc12 | 14.1 µM [rising, single point] | 31.6 µM [rising, single point] |
| CC(C)c1cc(C(=O)NNC(=S)NCc2ccco2)c(O)c(C(C)C)c1 |  | 8.91 µM [rising, partial curve] |
| Cc1ccc(Cl)cc1N1CCN(C(=O)CCS(=O)(=O)c2cccc3nonc23)CC1 |  | 17.8 µM [rising, single point] |
| CC12CC(NC(=O)N1c1ccc(C(=O)N3CCN(c4ccc(F)cc4)CC3)cc1)c1ccccc1O2 (stereo not given) |  | 10 µM [rising, partial curve, poor fit] |
| Cc1cccc(OCCNC(=O)c2cccc(Oc3ccc(C(F)(F)F)cc3[N+](=O)[O-])c2)c1 | 12.6 µM [rising, partial curve] | 25.1 µM [rising, partial curve] |
| O=C(NCCO)c1ccc(CSc2nc3ccccc3[nH]2)cc1 |  | 35.5 µM [rising, single point] |
| CC(C)(C)C(=O)NCCN1C(=O)S/C(=C\c2ccc([N+](=O)[O-])cc2)C1=O |  | 22.4 µM [rising, single point] |
| COc1ccc(Cl)c(Cn2c(NCC(C)O)nc3c2c(=O)n(C)c(=O)n3C)c1 (stereo not given) | 28.2 µM [rising, single point] | 31.6 µM [rising, single point] |
